From the supplement of paper PMC12819154, “High-throughput peptide-centric local stability assay extends protein–ligand identification to membrane proteins, tissues and bacteria” (Nature Structural & Molecular Biology, 2025)
Some of the results follow. Small differences around the control level are noise.

Amino acid sequences for entries named in this document (tags omitted). A change or cut given only in a name is not applied to a line headed by its entry.
UniProt Q13415: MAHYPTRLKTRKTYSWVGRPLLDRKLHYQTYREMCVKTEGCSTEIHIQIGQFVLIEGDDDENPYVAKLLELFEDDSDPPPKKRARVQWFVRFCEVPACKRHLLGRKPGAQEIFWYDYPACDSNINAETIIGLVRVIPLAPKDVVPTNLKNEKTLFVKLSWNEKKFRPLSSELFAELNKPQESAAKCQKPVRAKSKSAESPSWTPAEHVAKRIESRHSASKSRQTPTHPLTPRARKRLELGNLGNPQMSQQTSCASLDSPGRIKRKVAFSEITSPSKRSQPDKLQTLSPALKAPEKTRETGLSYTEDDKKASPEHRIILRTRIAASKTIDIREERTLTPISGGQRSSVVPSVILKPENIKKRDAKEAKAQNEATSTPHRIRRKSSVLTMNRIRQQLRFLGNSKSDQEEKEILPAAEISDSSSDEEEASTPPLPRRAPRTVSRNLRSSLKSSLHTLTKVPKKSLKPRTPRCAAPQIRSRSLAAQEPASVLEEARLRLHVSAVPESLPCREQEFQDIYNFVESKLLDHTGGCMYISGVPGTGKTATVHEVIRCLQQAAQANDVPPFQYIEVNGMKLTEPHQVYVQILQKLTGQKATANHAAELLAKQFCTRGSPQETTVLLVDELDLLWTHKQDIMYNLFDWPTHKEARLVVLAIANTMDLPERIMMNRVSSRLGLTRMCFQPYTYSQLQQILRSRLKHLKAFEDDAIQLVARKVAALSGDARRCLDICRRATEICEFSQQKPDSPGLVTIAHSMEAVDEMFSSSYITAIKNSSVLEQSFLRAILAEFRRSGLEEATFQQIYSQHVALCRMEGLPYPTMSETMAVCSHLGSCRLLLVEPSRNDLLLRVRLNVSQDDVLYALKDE
UniProt Q13772: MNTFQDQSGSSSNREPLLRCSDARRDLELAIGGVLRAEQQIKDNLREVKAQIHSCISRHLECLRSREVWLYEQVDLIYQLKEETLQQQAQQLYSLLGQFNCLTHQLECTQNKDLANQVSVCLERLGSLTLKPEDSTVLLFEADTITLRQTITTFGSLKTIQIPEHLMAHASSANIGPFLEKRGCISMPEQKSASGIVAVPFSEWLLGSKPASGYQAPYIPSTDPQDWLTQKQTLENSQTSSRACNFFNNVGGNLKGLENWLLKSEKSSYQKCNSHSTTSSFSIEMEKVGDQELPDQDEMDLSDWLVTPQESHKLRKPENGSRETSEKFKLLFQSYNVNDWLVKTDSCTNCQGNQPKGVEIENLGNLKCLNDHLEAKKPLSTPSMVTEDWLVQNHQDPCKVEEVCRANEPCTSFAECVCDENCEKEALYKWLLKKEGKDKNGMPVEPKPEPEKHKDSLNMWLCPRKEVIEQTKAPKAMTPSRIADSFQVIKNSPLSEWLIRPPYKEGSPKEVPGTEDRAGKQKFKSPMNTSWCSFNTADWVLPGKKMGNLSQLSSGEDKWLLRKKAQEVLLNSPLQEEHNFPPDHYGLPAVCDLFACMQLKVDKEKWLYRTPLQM
UniProt Q14585: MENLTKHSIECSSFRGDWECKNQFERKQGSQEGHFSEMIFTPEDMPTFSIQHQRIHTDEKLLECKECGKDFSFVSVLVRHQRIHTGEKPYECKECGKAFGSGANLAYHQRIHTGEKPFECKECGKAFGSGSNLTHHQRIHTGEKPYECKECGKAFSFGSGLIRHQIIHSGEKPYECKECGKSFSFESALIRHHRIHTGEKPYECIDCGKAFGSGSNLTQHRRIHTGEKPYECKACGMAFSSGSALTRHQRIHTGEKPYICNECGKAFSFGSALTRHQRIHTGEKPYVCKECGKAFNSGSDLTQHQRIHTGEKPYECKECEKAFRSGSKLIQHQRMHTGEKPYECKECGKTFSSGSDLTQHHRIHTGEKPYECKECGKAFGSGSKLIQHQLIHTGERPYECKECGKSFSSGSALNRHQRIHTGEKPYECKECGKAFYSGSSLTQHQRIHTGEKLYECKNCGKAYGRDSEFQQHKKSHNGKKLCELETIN
UniProt Q14574: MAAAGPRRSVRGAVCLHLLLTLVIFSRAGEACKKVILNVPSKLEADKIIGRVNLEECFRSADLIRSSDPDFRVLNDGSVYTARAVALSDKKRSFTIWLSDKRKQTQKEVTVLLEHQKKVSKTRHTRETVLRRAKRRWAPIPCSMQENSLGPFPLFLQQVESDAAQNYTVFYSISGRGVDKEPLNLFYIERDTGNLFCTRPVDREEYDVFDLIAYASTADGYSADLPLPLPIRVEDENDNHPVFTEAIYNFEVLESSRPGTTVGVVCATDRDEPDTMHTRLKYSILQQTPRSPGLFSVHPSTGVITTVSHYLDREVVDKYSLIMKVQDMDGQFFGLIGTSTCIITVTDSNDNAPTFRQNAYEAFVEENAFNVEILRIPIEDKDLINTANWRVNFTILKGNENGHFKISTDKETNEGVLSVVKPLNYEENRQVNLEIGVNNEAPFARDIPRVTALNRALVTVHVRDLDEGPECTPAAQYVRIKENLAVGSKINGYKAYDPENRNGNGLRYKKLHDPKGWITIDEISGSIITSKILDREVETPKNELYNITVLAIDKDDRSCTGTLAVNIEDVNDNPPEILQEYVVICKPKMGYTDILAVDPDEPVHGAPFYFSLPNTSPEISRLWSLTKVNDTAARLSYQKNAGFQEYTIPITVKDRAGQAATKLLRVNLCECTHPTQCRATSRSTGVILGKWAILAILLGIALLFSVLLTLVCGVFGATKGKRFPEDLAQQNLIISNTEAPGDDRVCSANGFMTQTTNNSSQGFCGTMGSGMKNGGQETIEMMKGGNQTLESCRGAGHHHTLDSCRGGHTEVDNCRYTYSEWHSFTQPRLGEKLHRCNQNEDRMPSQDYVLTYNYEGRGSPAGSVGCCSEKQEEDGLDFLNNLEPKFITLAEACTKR
UniProt Q14974, whole entry: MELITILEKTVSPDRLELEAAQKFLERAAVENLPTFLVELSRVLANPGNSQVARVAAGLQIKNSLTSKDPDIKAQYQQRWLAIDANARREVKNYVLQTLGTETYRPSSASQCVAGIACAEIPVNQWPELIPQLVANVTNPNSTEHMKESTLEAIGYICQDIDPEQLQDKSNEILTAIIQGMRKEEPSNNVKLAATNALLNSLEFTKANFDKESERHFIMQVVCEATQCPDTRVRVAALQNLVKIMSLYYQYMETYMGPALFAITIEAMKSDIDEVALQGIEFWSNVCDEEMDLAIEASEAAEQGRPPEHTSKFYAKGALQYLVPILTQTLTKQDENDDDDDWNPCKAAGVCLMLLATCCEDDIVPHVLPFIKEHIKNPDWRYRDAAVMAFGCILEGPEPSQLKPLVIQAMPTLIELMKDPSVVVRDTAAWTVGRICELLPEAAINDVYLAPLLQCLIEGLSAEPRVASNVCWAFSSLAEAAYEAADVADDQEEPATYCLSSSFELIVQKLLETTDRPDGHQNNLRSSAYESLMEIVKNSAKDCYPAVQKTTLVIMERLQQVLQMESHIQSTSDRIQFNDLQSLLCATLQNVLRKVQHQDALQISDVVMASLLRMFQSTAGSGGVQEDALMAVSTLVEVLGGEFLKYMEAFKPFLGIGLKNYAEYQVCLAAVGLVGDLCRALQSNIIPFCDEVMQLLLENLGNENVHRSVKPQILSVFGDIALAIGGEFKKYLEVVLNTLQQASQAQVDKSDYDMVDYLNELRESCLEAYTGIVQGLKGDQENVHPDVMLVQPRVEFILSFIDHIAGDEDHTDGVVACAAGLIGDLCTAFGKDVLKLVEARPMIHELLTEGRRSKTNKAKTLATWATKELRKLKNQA
UniProt Q14781, whole entry: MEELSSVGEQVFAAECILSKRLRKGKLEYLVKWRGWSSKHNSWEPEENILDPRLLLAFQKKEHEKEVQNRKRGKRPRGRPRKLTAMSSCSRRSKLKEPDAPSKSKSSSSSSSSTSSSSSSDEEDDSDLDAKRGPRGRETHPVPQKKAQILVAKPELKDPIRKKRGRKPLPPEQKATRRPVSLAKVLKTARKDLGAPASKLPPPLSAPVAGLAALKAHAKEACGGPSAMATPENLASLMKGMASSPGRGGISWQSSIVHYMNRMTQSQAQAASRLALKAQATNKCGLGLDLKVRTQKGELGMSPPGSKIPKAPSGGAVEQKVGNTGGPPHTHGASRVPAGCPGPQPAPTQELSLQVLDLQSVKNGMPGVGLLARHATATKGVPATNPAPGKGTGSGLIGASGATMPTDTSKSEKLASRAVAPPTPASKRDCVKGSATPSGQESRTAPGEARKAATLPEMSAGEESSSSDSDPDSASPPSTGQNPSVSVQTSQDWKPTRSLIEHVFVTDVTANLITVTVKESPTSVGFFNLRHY
UniProt Q13151: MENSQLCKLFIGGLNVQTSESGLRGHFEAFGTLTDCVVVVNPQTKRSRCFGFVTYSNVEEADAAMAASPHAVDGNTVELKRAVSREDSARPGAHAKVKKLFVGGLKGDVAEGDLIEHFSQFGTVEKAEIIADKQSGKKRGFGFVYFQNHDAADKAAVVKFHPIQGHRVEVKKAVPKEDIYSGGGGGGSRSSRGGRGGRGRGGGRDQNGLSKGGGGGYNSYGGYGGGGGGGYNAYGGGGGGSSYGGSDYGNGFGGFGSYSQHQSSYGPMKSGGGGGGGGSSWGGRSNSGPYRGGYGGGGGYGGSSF
UniProt Q14320: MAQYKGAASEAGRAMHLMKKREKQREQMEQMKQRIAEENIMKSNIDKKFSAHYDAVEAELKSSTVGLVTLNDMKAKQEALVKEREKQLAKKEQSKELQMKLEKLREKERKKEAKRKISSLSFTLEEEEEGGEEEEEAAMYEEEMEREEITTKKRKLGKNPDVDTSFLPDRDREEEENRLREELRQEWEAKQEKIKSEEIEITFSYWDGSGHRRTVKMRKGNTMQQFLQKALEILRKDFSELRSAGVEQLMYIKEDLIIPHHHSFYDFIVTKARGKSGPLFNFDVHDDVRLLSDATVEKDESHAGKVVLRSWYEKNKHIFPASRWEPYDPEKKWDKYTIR
UniProt Q14689: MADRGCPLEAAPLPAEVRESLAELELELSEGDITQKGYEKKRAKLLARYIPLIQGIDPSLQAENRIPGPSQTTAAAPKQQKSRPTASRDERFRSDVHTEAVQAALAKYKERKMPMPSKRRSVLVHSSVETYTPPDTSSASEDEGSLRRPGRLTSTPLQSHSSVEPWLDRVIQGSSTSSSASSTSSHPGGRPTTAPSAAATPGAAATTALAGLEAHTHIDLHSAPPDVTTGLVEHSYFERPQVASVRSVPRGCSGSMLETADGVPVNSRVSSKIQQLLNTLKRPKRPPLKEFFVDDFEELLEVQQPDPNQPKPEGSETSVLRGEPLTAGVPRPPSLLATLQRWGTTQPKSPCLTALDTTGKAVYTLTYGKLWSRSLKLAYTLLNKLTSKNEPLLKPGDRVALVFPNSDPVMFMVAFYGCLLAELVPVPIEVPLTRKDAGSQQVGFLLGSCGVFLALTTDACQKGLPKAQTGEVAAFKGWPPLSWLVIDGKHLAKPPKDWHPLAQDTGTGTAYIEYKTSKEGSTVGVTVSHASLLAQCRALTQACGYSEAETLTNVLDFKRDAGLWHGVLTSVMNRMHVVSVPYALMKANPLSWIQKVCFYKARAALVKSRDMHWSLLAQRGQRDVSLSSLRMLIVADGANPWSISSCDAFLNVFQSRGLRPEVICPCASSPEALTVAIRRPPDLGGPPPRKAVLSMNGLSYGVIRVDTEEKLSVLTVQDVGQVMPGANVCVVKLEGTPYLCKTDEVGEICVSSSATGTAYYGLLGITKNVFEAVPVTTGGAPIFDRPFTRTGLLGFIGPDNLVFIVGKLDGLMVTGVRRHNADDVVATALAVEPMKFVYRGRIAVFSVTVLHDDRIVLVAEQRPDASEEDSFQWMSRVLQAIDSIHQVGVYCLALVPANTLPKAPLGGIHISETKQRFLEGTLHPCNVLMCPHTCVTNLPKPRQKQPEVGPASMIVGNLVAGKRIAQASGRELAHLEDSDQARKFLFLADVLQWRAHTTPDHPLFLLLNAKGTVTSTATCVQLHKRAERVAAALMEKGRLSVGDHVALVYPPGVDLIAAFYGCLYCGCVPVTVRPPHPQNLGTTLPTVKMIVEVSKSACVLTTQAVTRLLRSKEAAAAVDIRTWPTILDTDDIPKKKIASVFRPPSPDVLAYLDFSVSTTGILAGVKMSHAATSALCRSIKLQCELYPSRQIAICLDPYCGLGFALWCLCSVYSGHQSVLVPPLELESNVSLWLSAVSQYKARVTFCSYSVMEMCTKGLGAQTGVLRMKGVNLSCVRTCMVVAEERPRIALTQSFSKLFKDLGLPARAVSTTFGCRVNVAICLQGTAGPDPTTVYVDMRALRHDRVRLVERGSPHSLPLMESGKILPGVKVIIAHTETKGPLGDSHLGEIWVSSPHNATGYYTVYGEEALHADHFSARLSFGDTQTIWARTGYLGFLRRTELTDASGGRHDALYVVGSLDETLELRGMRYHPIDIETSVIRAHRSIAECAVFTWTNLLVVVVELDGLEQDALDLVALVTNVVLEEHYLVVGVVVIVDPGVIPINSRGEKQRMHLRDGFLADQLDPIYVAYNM

compound: Cc1nc(Nc2ncc(C(=O)Nc3c(C)cccc3Cl)s2)cc(N2CCN(CCO)CC2)n1 [dasatinib]; assay: log2 fold change of tryptic peptide abundance, ligand vs vehicle (limited proteolysis) (log2 ratio); higher = more trypsin-susceptible (destabilized); details: ligand concentration: 5 uM; sample: K562 cleared lysate

Target | log2 fold change
UniProt Q14929 (peptide sequence: GADTSESGAVIR, peptide start residue: 203) | -0.26
ORC1 (peptide sequence: LLLVEPSRNDLLLR, peptide start residue: 831) (UniProt Q13415) | -0.263
NCOA4 (peptide sequence: AEQQIKDNLR, peptide start residue: 37) (UniProt Q13772) | -0.812
UniProt Q14585 (peptide sequence: MHTGEKPYECK, peptide start residue: 469) | 0.803
ATR (peptide sequence: ETAAIFHYLIIENR, peptide start residue: 1229) (UniProt Q13535) | 0.498
FKBP5 (peptide sequence: RGEAQLLMNEFESAKGDFEK, peptide start residue: 357) (UniProt Q13451) | 0.111
DHRS2 (peptide sequence: VNCVVPGIIKTDFSK, peptide start residue: 210) (UniProt Q13268) | -0.427
UBE2V1 (peptide sequence: LLEELEEGQK, peptide start residue: 15) (UniProt Q13404) | 0.1
PWP1 (peptide sequence: ERLVLGSAR, peptide start residue: 474) (UniProt Q13610) | 0.557
GALE (peptide sequence: GGGSLPESLR, peptide start residue: 41) (UniProt Q14376) | -0.285
SELENBP1 (peptide sequence: TKLVLPSLISSR, peptide start residue: 92) (UniProt Q13228) | 0.374
PAK1 (peptide sequence: SILPGDKTNK, peptide start residue: 57) (UniProt Q13153) | 0.317
UniProt Q14574 (peptide sequence: GAGHHHTLDSCR, peptide start residue: 799) | -0.384
KPNB1 (peptide sequence: DTAAWTVGR, peptide start residue: 426) (UniProt Q14974) | -0.206
C1D (peptide sequence: LDPLEQAK, peptide start residue: 47) (UniProt Q13901) | -0.0783
NCOA6 (peptide sequence: IGQILLTK, peptide start residue: 1823) (UniProt Q14686) | 0.129
FLNC (peptide sequence: LTVTSLQETGLK, peptide start residue: 2411) (UniProt Q14315) | 0.132
COTL1 (peptide sequence: AGGANYDAQTE, peptide start residue: 132) (UniProt Q14019) | 0.491
DYNC1I2 (peptide sequence: QQILHSEEFLSFFDHSTR, peptide start residue: 214) (UniProt Q13409) | 0.123
XRCC4 (peptide sequence: FILVLNEKK, peptide start residue: 180) (UniProt Q13426) | 0.224
KCTD2 (peptide sequence: GHGRPAAAVAQPLEPGPGPPER, peptide start residue: 43) (UniProt Q14681) | -0.0517
UniProt Q13620 (peptide sequence: EVPEYLHHVNKR, peptide start residue: 409) | -0.24
RAPGEF1 (peptide sequence: VVDNSPPPALPPK, peptide start residue: 277) (UniProt Q13905) | -1.43
CBX2 (peptide sequence: GVPATNPAPGK, peptide start residue: 380) (UniProt Q14781) | 0.347
HNRNPA0 (peptide sequence: GFGFVYFQNHDAADK, peptide start residue: 140) (UniProt Q13151) | 0.135
FAM50A (peptide sequence: WEPYDPEKK, peptide start residue: 324) (UniProt Q14320) | -0.208
IFT88 (peptide sequence: MFSNAGILK, peptide start residue: 228) (UniProt Q13099) | -0.275
DIP2A (peptide sequence: QKQPEVGPASMIVGNLVAGKR, peptide start residue: 943) (UniProt Q14689) | 0.325

Part of the list above in a different format.
Target,log2 fold change
"ATR (peptide sequence: ETAAIFHYLIIENR, peptide start residue: 1229) (UniProt Q13535)",0.498
"FLNC (peptide sequence: LTVTSLQETGLK, peptide start residue: 2411) (UniProt Q14315)",0.132
